Measured values taken from the supplement of paper PMC12819154, “High-throughput peptide-centric local stability assay extends protein–ligand identification to membrane proteins, tissues and bacteria” (Nature Structural & Molecular Biology, 2025).
This is one part of the list. Small differences around the control level are noise.

Protein sequences, listed by entry. Tags and fused reporters are not part of them. Lines headed by an entry give the natural chain unless they say otherwise; changes in a name come on top.
UniProt Q6Q477: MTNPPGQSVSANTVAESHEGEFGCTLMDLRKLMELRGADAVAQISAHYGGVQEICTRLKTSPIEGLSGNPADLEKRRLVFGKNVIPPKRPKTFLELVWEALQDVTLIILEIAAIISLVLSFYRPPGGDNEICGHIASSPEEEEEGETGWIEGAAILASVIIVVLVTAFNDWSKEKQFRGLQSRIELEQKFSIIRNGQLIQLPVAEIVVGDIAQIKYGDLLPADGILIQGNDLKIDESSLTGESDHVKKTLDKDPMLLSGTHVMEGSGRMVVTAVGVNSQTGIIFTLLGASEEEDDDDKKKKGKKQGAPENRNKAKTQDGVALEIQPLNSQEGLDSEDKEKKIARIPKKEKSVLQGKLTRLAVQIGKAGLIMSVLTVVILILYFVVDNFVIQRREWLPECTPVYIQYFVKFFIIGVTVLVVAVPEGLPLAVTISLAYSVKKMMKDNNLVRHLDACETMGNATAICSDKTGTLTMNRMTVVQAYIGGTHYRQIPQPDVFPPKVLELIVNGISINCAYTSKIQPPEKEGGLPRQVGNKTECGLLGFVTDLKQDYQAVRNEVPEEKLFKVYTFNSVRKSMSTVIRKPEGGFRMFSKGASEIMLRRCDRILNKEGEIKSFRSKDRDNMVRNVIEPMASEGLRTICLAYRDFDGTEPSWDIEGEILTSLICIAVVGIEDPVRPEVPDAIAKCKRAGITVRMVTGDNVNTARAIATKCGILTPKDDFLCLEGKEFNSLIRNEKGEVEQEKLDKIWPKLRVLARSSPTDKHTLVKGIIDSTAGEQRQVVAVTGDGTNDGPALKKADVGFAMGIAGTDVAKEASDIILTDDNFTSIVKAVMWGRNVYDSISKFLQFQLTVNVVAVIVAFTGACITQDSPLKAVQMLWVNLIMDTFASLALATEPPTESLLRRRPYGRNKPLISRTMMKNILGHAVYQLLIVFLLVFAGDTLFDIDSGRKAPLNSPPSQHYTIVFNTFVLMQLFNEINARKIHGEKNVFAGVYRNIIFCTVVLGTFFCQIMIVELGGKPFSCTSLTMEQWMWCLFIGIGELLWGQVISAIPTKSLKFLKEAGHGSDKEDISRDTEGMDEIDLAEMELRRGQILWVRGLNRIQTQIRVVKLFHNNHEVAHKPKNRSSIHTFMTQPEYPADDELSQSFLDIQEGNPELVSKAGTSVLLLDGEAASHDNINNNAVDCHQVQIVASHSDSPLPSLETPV
UniProt Q6DFW5: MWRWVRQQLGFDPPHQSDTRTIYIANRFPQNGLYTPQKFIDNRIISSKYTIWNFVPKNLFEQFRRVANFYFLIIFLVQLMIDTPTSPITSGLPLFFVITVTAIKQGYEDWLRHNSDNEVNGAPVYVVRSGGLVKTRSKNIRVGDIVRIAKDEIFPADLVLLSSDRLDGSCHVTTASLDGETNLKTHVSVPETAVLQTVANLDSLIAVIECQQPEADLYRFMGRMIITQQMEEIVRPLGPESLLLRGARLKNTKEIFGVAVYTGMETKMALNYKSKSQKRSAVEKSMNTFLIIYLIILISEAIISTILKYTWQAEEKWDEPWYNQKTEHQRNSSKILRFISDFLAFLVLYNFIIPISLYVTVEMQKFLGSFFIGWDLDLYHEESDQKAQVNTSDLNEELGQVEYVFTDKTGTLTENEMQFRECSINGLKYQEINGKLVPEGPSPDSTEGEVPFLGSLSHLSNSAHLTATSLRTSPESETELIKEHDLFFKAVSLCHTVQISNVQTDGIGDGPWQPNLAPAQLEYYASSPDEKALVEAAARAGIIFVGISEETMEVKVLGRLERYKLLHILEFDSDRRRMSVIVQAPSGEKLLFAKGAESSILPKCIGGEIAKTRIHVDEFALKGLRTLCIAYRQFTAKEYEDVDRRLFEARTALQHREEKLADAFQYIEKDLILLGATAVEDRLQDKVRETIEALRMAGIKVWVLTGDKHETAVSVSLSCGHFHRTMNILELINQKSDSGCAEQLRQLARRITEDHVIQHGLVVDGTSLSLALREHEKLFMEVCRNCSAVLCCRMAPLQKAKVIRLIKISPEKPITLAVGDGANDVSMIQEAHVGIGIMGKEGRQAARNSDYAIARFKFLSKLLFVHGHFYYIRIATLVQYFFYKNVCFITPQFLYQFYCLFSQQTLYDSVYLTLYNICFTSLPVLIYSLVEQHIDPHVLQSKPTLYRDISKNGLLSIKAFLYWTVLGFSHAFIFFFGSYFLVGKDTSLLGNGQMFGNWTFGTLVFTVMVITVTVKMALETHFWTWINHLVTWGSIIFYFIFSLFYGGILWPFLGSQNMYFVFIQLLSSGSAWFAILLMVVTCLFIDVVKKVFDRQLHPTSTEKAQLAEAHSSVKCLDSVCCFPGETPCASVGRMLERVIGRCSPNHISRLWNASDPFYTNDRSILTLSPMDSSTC
UniProt Q6PFR5: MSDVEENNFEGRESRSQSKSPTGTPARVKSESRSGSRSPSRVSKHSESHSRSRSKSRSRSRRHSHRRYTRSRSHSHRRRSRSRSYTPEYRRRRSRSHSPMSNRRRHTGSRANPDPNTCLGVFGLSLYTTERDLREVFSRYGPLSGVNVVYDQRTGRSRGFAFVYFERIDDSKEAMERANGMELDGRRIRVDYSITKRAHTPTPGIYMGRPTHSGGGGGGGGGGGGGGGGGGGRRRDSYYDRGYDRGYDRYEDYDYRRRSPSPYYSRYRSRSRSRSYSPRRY
UniProt Q6NXK5: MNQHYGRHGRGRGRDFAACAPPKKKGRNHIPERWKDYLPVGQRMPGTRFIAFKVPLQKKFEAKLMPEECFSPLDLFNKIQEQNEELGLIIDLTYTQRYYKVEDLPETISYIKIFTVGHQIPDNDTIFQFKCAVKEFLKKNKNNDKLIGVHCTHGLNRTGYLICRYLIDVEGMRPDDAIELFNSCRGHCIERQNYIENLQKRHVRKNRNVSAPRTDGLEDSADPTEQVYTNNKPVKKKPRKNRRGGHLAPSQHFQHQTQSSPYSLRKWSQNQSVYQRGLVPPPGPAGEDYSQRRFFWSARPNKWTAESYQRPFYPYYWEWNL
UniProt Q6A0A9: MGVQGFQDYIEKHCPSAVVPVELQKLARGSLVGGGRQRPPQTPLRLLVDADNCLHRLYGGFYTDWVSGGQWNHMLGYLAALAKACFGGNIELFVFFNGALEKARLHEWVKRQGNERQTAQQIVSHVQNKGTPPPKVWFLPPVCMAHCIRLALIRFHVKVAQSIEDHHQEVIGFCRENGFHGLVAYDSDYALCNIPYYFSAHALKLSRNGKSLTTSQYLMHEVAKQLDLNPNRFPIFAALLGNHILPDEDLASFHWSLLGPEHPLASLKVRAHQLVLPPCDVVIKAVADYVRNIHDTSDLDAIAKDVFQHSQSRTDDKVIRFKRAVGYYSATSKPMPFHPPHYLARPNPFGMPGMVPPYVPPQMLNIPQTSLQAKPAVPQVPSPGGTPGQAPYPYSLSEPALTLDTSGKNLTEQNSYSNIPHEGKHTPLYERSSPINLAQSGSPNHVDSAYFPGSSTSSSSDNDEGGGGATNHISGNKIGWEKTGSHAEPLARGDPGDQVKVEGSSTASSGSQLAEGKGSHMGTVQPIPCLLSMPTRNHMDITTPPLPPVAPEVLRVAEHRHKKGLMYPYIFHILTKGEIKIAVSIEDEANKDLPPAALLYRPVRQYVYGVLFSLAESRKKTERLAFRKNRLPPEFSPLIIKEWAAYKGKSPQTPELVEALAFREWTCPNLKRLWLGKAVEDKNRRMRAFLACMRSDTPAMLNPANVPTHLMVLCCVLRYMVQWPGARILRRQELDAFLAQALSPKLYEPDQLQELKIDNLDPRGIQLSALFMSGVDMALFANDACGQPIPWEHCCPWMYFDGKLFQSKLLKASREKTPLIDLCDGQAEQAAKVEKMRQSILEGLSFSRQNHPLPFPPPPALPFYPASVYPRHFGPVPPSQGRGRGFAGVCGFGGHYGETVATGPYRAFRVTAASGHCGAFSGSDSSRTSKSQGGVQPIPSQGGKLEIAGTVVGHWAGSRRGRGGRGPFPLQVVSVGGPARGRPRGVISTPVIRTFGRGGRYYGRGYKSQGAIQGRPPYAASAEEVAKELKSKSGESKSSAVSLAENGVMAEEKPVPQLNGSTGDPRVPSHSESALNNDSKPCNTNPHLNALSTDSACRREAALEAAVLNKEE
UniProt Q6PIU9: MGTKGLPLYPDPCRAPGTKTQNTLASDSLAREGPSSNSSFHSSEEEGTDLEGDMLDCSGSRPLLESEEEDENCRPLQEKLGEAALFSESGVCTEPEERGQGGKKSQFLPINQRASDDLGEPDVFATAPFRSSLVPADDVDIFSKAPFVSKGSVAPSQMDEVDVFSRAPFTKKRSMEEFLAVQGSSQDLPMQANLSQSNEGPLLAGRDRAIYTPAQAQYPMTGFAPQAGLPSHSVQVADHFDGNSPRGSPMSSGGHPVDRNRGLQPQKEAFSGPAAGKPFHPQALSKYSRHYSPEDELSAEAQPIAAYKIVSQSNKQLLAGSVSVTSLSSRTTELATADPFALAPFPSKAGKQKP
UniProt Q6URW6, whole entry: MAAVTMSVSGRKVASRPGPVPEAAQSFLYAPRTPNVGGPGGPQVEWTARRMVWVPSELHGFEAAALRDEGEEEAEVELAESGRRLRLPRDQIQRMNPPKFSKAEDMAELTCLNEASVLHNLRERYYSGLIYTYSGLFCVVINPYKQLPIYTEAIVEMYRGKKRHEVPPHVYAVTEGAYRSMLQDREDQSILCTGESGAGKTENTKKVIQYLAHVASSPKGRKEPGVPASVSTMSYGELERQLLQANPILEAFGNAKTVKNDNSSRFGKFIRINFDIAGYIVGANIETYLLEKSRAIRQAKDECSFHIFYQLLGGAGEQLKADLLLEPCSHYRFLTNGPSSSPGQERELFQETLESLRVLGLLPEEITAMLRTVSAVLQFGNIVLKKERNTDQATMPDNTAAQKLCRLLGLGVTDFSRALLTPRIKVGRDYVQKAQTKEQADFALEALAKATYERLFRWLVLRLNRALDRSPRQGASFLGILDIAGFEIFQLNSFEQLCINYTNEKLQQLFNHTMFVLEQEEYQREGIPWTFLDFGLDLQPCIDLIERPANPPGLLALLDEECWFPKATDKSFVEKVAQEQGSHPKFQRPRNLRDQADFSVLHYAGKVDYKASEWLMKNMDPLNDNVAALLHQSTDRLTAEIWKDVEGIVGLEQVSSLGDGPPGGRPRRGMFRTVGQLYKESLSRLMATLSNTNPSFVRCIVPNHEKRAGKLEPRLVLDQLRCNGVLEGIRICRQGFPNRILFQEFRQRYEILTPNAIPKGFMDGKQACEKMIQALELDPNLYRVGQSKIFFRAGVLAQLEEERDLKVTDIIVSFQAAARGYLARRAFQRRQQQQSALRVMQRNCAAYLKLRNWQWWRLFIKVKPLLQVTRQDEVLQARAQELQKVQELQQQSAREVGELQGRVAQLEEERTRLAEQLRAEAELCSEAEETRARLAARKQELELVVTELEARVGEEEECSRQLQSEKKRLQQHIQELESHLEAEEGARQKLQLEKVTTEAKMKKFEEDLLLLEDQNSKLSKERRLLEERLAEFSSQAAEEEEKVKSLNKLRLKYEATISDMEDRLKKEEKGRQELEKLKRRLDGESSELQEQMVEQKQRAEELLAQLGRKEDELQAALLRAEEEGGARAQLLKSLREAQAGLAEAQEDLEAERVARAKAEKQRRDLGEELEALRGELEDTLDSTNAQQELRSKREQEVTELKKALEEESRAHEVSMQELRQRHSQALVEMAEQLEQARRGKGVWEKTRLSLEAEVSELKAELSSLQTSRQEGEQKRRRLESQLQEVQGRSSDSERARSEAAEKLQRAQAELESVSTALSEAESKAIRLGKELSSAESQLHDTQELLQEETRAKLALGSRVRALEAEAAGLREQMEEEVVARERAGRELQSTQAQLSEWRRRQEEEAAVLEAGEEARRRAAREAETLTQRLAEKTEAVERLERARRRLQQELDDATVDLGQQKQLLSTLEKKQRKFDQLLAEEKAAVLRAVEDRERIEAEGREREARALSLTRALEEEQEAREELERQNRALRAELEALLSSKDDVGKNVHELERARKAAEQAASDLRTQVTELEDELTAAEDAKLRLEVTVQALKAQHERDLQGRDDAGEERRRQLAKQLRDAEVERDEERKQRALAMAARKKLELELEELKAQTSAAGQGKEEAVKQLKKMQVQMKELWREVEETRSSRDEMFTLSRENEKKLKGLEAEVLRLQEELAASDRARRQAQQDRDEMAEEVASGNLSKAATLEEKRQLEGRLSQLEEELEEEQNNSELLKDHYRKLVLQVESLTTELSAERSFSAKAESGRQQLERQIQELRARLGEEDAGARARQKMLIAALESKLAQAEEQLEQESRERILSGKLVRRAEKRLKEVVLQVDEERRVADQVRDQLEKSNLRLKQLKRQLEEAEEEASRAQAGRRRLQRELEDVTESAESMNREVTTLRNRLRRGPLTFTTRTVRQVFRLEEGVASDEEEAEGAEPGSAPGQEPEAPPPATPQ

compound: CN[C@@H]1C[C@H]2O[C@@](C)([C@@H]1OC)n1c3ccccc3c3c4c(c5c6ccccc6n2c5c31)C(=O)NC4 [staurosporine]; test: log2 fold change of tryptic peptide abundance, ligand vs vehicle (limited proteolysis) (log2 ratio); higher = more trypsin-susceptible (destabilized); conditions: ligand concentration: 20 uM; sample: mouse liver crude lysate; replicate design: treated separately

| Target | log2 fold change |
| --- | --- |
| UniProt Q6P2B1 (peptide sequence: QVTSAEECKQVCWALR, peptide start residue: 901) | -0.257 |
| UniProt Q6Q2Z6 (peptide sequence: HFMAPGVR, peptide start residue: 128) | 0.0111 |
| UniProt Q6P8G8 (peptide sequence: GYLDLMGASQHSLR, peptide start residue: 34) | -0.235 |
| UniProt Q6PAR5 (peptide sequence: WIVSQMYK, peptide start residue: 282) | 0.459 |
| UniProt Q6A070 (peptide sequence: TQSAHCYCGDHTR, peptide start residue: 618) | -0.524 |
| UniProt Q6Q899 (peptide sequence: QNLQAFR, peptide start residue: 7) | 0.358 |
| UniProt Q6VN19 (peptide sequence: ELQALSEQLGR, peptide start residue: 517) | 0.265 |
| UniProt Q6PIX9 (peptide sequence: LLDVPLSDR, peptide start residue: 217) | 0.237 |
| UniProt Q69ZT1 (peptide sequence: RADVGLAEPLEVR, peptide start residue: 289) | 0.18 |
| UniProt Q6PCZ4 (peptide sequence: GHPAAVPGPDVPR, peptide start residue: 25) | 0.206 |
| UniProt Q6PIC6 (peptide sequence: LIIVEGCQR, peptide start residue: 699) | -0.407 |
| UniProt Q6Q477 (peptide sequence: MVTGDNVNTAR, peptide start residue: 695) | 0.224 |
| UniProt Q69ZR2 (peptide sequence: KLGPDSSVR, peptide start residue: 1468) | -0.247 |
| UniProt Q6DFW5 (peptide sequence: CSPNHISR, peptide start residue: 1142) | 0.0487 |
| UniProt Q6PIE5 (peptide sequence: ACVVHGSDLK, peptide start residue: 662) | -0.172 |
| UniProt Q6NVE9 (peptide sequence: KGACYGDDACFVAR, peptide start residue: 60) | -0.241 |
| UniProt Q6PE65 (peptide sequence: HPALSAIIR, peptide start residue: 97) | 0.287 |
| UniProt Q6PFR5 (peptide sequence: VDYSITKR, peptide start residue: 190) | 0.358 |

2 records picked at random from the list so far:

| Target | log2 fold change |
| --- | --- |
| UniProt Q69ZR2 (peptide sequence: KLGPDSSVR, peptide start residue: 1468) | -0.247 |
| UniProt Q6NVE9 (peptide sequence: KGACYGDDACFVAR, peptide start residue: 60) | -0.241 |

Continuation:

| Target | log2 fold change |
| --- | --- |
| UniProt Q6P3B9 (peptide sequence: HTESVLQR, peptide start residue: 153) | -0.294 |
| UniProt Q6NXK5 (peptide sequence: WKDYLPVGQR, peptide start residue: 34) | 0.4 |
| UniProt Q69ZS8 (peptide sequence: AKEALQAMKADR, peptide start residue: 139) | -0.0469 |
| UniProt Q6P1B1 (peptide sequence: SAGHHLVPVKENLVDK, peptide start residue: 138) | 0.411 |
| UniProt Q6PAR0 (peptide sequence: FIQSCPIIR, peptide start residue: 66) | -0.468 |
| UniProt Q6TCG2 (peptide sequence: SPPAATTKPLLR, peptide start residue: 33) | 0.297 |
| UniProt Q6A0A9 (peptide sequence: SQGGVQPIPSQGGK, peptide start residue: 931) | 0.098 |
| UniProt Q6NWW9 (peptide sequence: VYAVYNSVK, peptide start residue: 358) | 0.408 |
| UniProt Q6KCD5 (peptide sequence: LMDNSTSVR, peptide start residue: 1814) | 0.563 |
| UniProt Q6PIU9 (peptide sequence: GSPMSSGGHPVDR, peptide start residue: 247) | 0.057 |
| UniProt Q6PJN8 (peptide sequence: EATLPPGVLGR, peptide start residue: 204) | 0.184 |
| UniProt Q6PAL7 (peptide sequence: ASTVSPGGYMVPK, peptide start residue: 1056) | 0.615 |
| UniProt Q6URW6 (peptide sequence: AQTSAAGQGKEEAVK, peptide start residue: 1652) | -0.719 |
| UniProt Q6A039 (peptide sequence: SGGFADFFAR, peptide start residue: 236) | -0.143 |
| UniProt Q6P5H2 (peptide sequence: QESLKSPEEEDQQAFR, peptide start residue: 726) | -0.446 |
| UniProt Q6PDK8 (peptide sequence: AGGSVVLGQVDSR, peptide start residue: 40) | -0.268 |
| UniProt Q6PHQ8 (peptide sequence: VFGTHLMQDMVK, peptide start residue: 382) | 0.28 |
| UniProt Q6A065 (peptide sequence: ATEALKSEEKPMDVSAMPR, peptide start residue: 153) | -0.658 |
